For at least one compound, name, drawing or mass did not settle the structure.
Target: T1, wild-type CFTR (Homo sapiens, UniProt P13569)
T1 construct: excised inside-out patches with ATP and PKA
Assay: Single channel excised inside-out patch-clamp and burst analysis, wild-type CFTR
Format: cell-based
Settings: PPi analogs at 5 mM, 75 nM PKA, 0.3 mM ATP

Protein sequences, listed by entry. Tags and fused reporters are not part of them.
UniProt P13569, whole entry: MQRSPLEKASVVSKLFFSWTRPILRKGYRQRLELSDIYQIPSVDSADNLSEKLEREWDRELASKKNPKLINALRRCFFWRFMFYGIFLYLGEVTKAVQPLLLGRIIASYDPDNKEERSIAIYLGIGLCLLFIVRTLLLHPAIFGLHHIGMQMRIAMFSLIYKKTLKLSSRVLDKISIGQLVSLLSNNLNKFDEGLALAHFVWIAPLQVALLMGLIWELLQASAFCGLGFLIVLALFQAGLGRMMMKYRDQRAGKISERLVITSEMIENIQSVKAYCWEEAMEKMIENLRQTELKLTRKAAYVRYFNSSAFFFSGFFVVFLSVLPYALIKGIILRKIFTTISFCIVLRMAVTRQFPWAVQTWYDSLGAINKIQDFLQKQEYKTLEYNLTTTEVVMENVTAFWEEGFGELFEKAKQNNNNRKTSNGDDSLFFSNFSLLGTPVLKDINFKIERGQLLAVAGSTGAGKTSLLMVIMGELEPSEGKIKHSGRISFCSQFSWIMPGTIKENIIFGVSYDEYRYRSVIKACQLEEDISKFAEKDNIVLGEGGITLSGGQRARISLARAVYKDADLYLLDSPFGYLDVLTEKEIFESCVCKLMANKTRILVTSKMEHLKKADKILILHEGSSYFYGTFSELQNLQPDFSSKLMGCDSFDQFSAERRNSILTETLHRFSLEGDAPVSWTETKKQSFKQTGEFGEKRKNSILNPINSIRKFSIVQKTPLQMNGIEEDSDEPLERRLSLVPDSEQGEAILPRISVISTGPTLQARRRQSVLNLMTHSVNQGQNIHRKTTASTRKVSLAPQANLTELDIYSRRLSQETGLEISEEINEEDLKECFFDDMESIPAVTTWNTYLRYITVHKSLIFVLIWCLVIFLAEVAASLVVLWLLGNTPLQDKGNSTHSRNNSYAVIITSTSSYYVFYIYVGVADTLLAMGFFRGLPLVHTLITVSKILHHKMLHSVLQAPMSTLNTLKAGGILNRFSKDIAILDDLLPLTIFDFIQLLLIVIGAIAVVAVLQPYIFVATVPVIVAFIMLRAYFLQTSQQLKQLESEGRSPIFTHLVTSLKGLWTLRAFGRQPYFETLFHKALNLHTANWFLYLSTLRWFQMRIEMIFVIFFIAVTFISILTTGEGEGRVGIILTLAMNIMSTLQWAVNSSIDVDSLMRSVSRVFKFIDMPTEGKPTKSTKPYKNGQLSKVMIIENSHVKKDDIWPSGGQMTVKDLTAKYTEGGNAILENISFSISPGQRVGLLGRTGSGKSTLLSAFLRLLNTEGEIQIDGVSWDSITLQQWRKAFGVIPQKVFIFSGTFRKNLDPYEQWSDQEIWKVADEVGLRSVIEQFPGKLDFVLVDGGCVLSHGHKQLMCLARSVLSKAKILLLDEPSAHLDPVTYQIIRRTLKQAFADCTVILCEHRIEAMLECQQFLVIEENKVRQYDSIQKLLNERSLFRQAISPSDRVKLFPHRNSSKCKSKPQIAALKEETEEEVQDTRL

O=P(O)(O)NP(=O)(O)O [PNP, imidodiphosphate]
frequency of prolonged bursts compared with PPi: less frequent | bursts of activity (C127 cell patches with a single active channel): prolonged bursts of activity

Reference: patent US5958907A, “Pharmaceutical compositions and uses of inorganic pyrophosphates” (The University of Iowa Research Foundation, priority 1997, dated 1999)
